Test results published in paper PMC10803253, “Structural insights into the iron nitrogenase complex” (Nature Structural & Molecular Biology, 2023).
These are yes or no findings as the source states them, for the method shown.

Chains of the proteins cited; added tags and fusions are not shown.
UniProt Q07933: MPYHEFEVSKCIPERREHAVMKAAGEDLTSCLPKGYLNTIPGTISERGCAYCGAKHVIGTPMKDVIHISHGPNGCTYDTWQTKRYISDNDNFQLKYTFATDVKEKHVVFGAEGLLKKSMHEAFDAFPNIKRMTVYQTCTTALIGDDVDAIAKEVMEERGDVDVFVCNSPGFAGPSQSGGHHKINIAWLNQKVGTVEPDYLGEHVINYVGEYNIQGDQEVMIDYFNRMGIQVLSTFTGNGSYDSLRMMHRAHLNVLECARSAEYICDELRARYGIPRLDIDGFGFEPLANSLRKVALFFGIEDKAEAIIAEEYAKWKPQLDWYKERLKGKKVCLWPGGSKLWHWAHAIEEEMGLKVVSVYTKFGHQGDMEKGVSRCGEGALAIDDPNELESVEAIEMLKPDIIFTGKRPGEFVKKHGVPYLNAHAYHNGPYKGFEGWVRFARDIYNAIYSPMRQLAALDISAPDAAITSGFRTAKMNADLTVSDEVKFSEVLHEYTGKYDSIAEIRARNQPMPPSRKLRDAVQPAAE

Target: AnfD, D subunit of the Fe nitrogenase catalytic component (Rhodobacter capsulatus) (Rhodobacter capsulatus) (UniProt Q07933)
Test: condition: only with CHAPSO detergent (0.4% m/V) added before plunge freezing; cryo-EM structure; catalytic component Anf(DGK)2 alone with CHAPSO (0.4% m/V) added on the grid right before plunge freezing; 2.49 Å, C2 symmetry; both purified

B1: AnfG, G subunit of the Fe nitrogenase catalytic component (Rhodobacter capsulatus) (protein, UniProt Q07934 1-115)
chain: MTDISEKLDPLVDYIMKNCLWQFNSRGWDRLKQNAGILSQTCEILCGEEPVHETAMDRCYWVDAVILSRAYKARFPWLMAMTKPEIKSLFKALHEKIDHLTVHGSLNTELTVPHY
binding: no binding
